{"source": "PubChem BioAssay AID743454 | Peter MacCallum Cancer Centre – 2014", "purpose": "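Knock-downs lowering viability or raising caspase 3/7 activity in vorinostat-treated resistant cells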 (primary screen)", "cells": "human HCT116-VR colon cancer cells, selected for vorinostat resistance", "knock-down reagent": "siRNA pool against human genes, 40 nM siRNA pool", "duration": "vorinostat for 24 h, read-out about 72 h after transfection", "treatment": "vorinostat at 2.5 µM final", "measurement": "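Two measures, CellTiter-Fluor viability and luminescent caspase 3/7 activity, each as fold change against same-plate mock wells, mean of duplicates, then screen-wide robust z-score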", "reading the numbers": "viability robust z-score: higher = more viable cells than screen typical; caspase robust z-score: higher = more caspase 3/7 activity than screen typical", "hit rule": "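a knock-down is a hit when classed RV1 or RV2 for lowered viability, or CA1 or CA2 for caspase activation; those lethal without drug were dropped; hits were retested singly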", "note": "The deposit covers about 18,000 reagents; this is a random part of them. Of all reagents, 450 (2.5%) were called active. 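Single biological run; no consistent viability z cut-off exists, so the class columns, not z-scores, define the calls.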"}
{"Target gene": "CFAP263 (GeneID 29070)", "viability hit class": "no change", "caspase hit class": "no change", "viability robust z-score": -1.09, "caspase robust z-score": 1.97, "Outcome": "inactive"}
{"Target gene": "OR9G4 (GeneID 283189)", "viability hit class": "no change", "caspase hit class": "no change", "viability robust z-score": 1.14, "caspase robust z-score": -0.46, "Outcome": "inactive"}
{"Target gene": "KCNG2 (GeneID 26251)", "viability hit class": "no change", "caspase hit class": "no change", "viability robust z-score": 0.84, "caspase robust z-score": -0.3, "Outcome": "inactive"}
{"Target gene": "TSSK1B (GeneID 83942)", "viability hit class": "no change", "caspase hit class": "no change", "viability robust z-score": 0.36, "caspase robust z-score": 1.8, "Outcome": "inactive"}
{"Target gene": "IFI27 (GeneID 3429)", "viability hit class": "no change", "caspase hit class": "no change", "viability robust z-score": 1.12, "caspase robust z-score": 0.69, "Outcome": "inactive"}
{"Target gene": "RAB17 (GeneID 64284)", "viability hit class": "no change", "caspase hit class": "no change", "viability robust z-score": -0.14, "caspase robust z-score": 1.88, "Outcome": "inactive"}
{"Target gene": "C4A (GeneID 720)", "viability hit class": "no change", "caspase hit class": "no change", "viability robust z-score": -1.2, "caspase robust z-score": -0.76, "Outcome": "inactive"}

Copied from above for reference:
{"Target gene": "RAB17 (GeneID 64284)", "viability hit class": "no change", "caspase hit class": "no change", "viability robust z-score": -0.14, "caspase robust z-score": 1.88, "Outcome": "inactive"}
{"Target gene": "C4A (GeneID 720)", "viability hit class": "no change", "caspase hit class": "no change", "viability robust z-score": -1.2, "caspase robust z-score": -0.76, "Outcome": "inactive"}

The list goes on.
{"Target gene": "GRIN2B (GeneID 2904)", "viability hit class": "no change", "caspase hit class": "no change", "viability robust z-score": -0.29, "caspase robust z-score": 0.46, "Outcome": "inactive"}
{"Target gene": "QARS1 (GeneID 5859)", "viability hit class": "no change", "caspase hit class": "no change", "viability robust z-score": -2.86, "caspase robust z-score": 1.14, "Outcome": "inactive"}
{"Target gene": "TMEM266 (GeneID 123591)", "viability hit class": "no change", "caspase hit class": "no change", "viability robust z-score": 1.64, "caspase robust z-score": 0.82, "Outcome": "inactive"}
{"Target gene": "SLC25A51 (GeneID 92014)", "viability hit class": "no change", "caspase hit class": "no change", "viability robust z-score": 0.89, "caspase robust z-score": 0.08, "Outcome": "inactive"}
{"Target gene": "CXCL14 (GeneID 9547)", "viability hit class": "no change", "caspase hit class": "no change", "viability robust z-score": 1.22, "caspase robust z-score": -0.04, "Outcome": "inactive"}
